Data published in the supplement of paper PMC7858590.
± gives the standard deviation of the averaged measurements. This is one part of the list. This data set is noisy: repeats of one test often differ as much as different tests do.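 M-CSF-grown macrophages from blood monocytes pooled across four healthy donors, in an M1-like state, received compounds that had driven resting macrophages M2-like in a first screen. Each Z-score t-tests eccentricity of ~1000 cells per well against same-row DMSO wells. Compounds passing the +6 M2 cutoff, set by standard cytokine controls, count as reprogramming. M1 cutoff: −4.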

Test system: human monocyte-derived macrophages (polarized)
Experiment: cell shape (eccentricity) Z-score vs DMSO control; macrophage state: M1-polarized (IFNg + TNFa), cytokines removed before treatment; higher = more elongated, M2-like morphology
Settings: 24 h; 10 µM

| Structure (SMILES) | cell shape (Z-score) |
| --- | --- |
| CCN1C[C@]2(COC)CC[C@H](OC)[C@]34C1[C@H]([C@H](OC)[C@H]23)[C@@]1(OC(C)=O)C[C@H](OC)[C@]2(O)C[C@@H]4[C@@H]1[C@H]2OC(=O)c1ccc(OC)cc1 | 1.91 ± 5.7 |
| Clc1ccc(C(OCCN2CCCCC2)c2ccccc2)cc1 (stereo not given) | -0.552 ± 2 |
| CC(C)[C@]12O[C@H]1[C@@H]1O[C@]13[C@]1(O[C@H]1C[C@H]1C4=C(CC[C@@]13C)C(=O)OC4)[C@@H]2O | 14.2 |
| CCOC(=O)c1ncn2c1C1CCCN1C(=O)c1cc(OC)ccc1-2 (stereo not given) | -1.47 ± 2.9 |
| C=C(C)[C@@H]1[C@H]2OC(=O)[C@@H]1[C@]1(O)C[C@H]3O[C@]34C(=O)O[C@H]2[C@]14C | 5.46 ± 6.6 |
| O=C1/C(=C/c2ccccc2)C[C@@]2(O)[C@H]3Cc4ccc(O)c5c4[C@@]2(CCN3CC2CC2)[C@H]1O5 | -15.3 ± 12 |
| CCC1(CC)C(=O)NC(=O)NC1=O | 0.961 ± 0.58 |
| CCCN(CCC)C1CCc2cccc(O)c2C1 (stereo not given) | -1.11 ± 2.8 |
| CNc1ccc2oc(C[C@H]3O[C@@]4(CC[C@H]3C)O[C@H]([C@H](C)C(=O)c3ccc[nH]3)[C@H](C)C[C@H]4C)nc2c1C(=O)O | 2.85 ± 6.1 |
| COc1cc2ccc(=O)oc2c2ccoc12 | -0.126 ± 2.1 |
| COc1ccc2c3c([nH]c2c1)[C@H](CC(C)C)N1C(=O)[C@H](CCC(=O)OC(C)(C)C)NC(=O)[C@@H]1C3 | -3 ± 1.7 |
| O=C1NC(=O)c2c1c1c3ccccc3[nH]c1c1[nH]c3ccccc3c21 | 8.27 |
| CCC(=O)CCCCC[C@@H]1NC(=O)[C@H]2CCCCN2C(=O)[C@H]([C@@H](C)CC)NC(=O)[C@H](Cc2cn(OC)c3ccccc23)NC1=O | -4.24 ± 4.8 |
| C[C@]12CCC(=O)C=C1CC[C@@H]1C2CC[C@]2(C)C(=O)CCC12 (stereo not given in full) | -3.64 ± 3.7 |
| C[C@]12CC[C@@H](O)C[C@@H]1CC[C@@H]1[C@@H]2CC[C@]2(C)[C@@H](C(=O)CO)CC[C@@H]12 | -2.15 ± 4.3 |
| COc1cc([C@@H]2c3cc4c(c(O)c3C[C@H]3COC(=O)[C@@H]32)OCO4)cc(OC)c1OC | 2.83 ± 0.33 |
| COc1cc2c(c(OC)c1OC)-c1ccc(OC)c(=O)cc1[C@@H](NC(C)=O)CC2 | -0.255 ± 0.013 |
| CC[C@@H]1/C=C/C=C/C[C@H](C)[C@H](O)[C@](C)(O)C(=O)[C@H](C)[C@@H](O)[C@H](C)C(=O)[C@H](C)[C@@H](O)[C@H](C)/C=C/C(=O)O[C@H]2[C@@H](C)[C@@H](CC1)O[C@@]1(CC[C@@H](C)[C@@H](C[C@H](C)O)O1)[C@@H]2C | -12.3 ± 12 |
| CCCCCCCCCCCCCC(=O)O[C@@H]1[C@@H](C)[C@@]2(O)[C@@H](C=C(CO)C[C@]3(O)C(=O)C(C)=C[C@@H]23)[C@@H]2C(C)(C)[C@]12OC(C)=O | -8.71 ± 1.7 |
| CC(C)=CC1C(C(=O)OCc2coc(Cc3ccccc3)c2)C1(C)C (stereo not given) | 3.34 ± 3.2 |
| CN(C)C(=S)SSC(=S)N(C)C | -9.71 ± 12 |
| O=C(O)c1nn(Cc2ccc(Cl)cc2Cl)c2ccccc12 | -9.02 ± 9.6 |
| CCNC(=O)C[C@@H]1N=C(c2ccc(Cl)cc2)c2cc(OC)ccc2-n2c(C)nnc21 | -0.849 ± 2.6 |
| Clc1ccc(C2=CCCC3CCC2N3)cn1 (stereo not given) | 0.551 ± 3.4 |
| c1cc2c(c(N3CCNCC3)c1)OCCO2 | -0.914 ± 4.9 |
| COc1cc([C@@H]2c3cc4c(cc3[C@H](OC(C)=O)[C@H]3COC(=O)[C@H]23)OCO4)cc(OC)c1OC | 3.45 ± 1.6 |
| CN1[C@@H]2CC[C@H]1C[C@@H](OC(c1ccccc1)c1ccccc1N)C2 (stereo not given in full) | -0.648 ± 4.2 |
| CCn1cc(C(=O)O)c(=O)c2cc3c(cc21)OCO3 | -3.62 ± 4.9 |
| COc1cc([C@@H]2c3cc4c(cc3[C@@H](O)[C@H]3COC(=O)[C@H]23)OCO4)cc(OC)c1O | -1.62 ± 2.7 |
| Cc1sc2c(c1C)C(c1ccc(Cl)cc1)=N[C@@H](CC(=O)OC(C)(C)C)c1nnc(C)n1-2 | -1.8 ± 3.2 |

Of the compounds above, these contain a tert-butyl group:

| Structure (SMILES) | cell shape (Z-score) |
| --- | --- |
| COc1ccc2c3c([nH]c2c1)[C@H](CC(C)C)N1C(=O)[C@H](CCC(=O)OC(C)(C)C)NC(=O)[C@@H]1C3 | -3 ± 1.7 |
| Cc1sc2c(c1C)C(c1ccc(Cl)cc1)=N[C@@H](CC(=O)OC(C)(C)C)c1nnc(C)n1-2 | -1.8 ± 3.2 |
